Source: PMC11109380
Results are given in words; binding and its absence hold for the method and conditions named. In cells and extracts the contact can be indirect. Some binding calls cover weakened binding; strength is not graded here.

Sequences of proteins named here, by UniProt entry; tags and fusion partners are left off. A change or cut given only in a name is not applied to a line headed by its entry. A line that says so, or that is headed by a name, gives the form on record, which may keep a tag or linker. Residues count along the entry.
UniProt P07766: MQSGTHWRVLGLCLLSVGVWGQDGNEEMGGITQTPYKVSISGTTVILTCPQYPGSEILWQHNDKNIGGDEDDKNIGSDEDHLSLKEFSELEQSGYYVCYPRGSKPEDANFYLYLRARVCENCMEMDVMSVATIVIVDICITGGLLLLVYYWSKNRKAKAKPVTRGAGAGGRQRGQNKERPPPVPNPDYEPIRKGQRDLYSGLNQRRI
human CD3ε WT-FLAG expressed in JK εKO cells: residues 23-207 of P07766
human CD3ε cytoplasmic tail fused to GST, WT: residues 153-207 of P07766
UniProt P06239: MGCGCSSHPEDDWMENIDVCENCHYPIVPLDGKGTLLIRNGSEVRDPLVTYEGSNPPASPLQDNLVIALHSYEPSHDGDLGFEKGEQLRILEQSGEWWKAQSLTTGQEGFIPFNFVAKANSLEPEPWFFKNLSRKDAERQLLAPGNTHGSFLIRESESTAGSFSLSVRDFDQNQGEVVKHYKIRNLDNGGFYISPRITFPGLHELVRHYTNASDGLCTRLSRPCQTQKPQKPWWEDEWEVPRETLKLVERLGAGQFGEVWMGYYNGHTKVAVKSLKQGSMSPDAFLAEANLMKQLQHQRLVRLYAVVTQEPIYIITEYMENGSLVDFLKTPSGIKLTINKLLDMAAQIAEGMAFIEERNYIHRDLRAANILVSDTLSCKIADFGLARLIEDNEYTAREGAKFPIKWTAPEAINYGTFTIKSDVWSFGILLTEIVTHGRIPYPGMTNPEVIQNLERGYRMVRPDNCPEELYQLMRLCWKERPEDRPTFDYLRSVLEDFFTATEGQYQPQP

Experiments:
[1] = biological target: human CD3ε WT-FLAG expressed in JK εKO cells (human) (UniProt P07766); assay: proximity ligation; in situ PLA (Duolink) with goat anti-CD3ε and mouse anti-LCK in JK εKO cells expressing hCD3ε variants; unstimulated or stimulated with 5 μg/ml anti-CD3ε (OKT3) for 5 min at 37°C; dots per cell normalised to the stimulated WT
[2] = biological target: human CD3ε cytoplasmic tail fused to GST, WT (human) (UniProt P07766); assay: pull-down; GST-CD3ε cytoplasmic tail variants on glutathione sepharose beads, incubated with Jurkat T cell lysate (lysis buffer with 0.3% Brij96V, 20 mM Tris-HCl pH 8, 137 mM NaCl) overnight at 4°C; immunoblot, signals normalised to GST; only the target purified

- binding [1]: binds
- binding [2]: binds
Substance: Src family kinase LCK (from UniProt P06239 1-509) (enzyme)
